A short description of data set [1]: Odor evaluated olfactorily by a human subject.
The nature of data set [2]: Spreading area of a drop on the volar forearm. The class given is in vivo. Conditions: 10 ul drop, six subjects.

As for `CCCCCCC(C)OC(=O)CCC(=O)OC(C)CCCCCC` (centres unmarked) [bis(1-methylheptyl) butanedioate], the Odor result in data set [1] is “Mild,”. Besides, in data set [2], the “Spreading Area, cm after 1 min.” value stood at 2.0 cm; the “Spreading Area, cm after 3 min.” value amounted to 2.7 cm; the “Spreading Area, cm after 5 min.” value is given as 3.2 cm.
For `CCCCCCC(=O)OCC(C)(C)COC(=O)CCCCCC` [neopentyl glycol diheptanoate] the same measures were “Mild,”, 2.1 cm, 3.2 cm and 3.7 cm.

Source of the values: US20200255367A1, “Diesters for Personal Care Applications Derived from 1-Methylheptyl Alcohol” (Inolex Investment Corporation, priority 2016, published 2020).
